* marks the point of attachment. Acm = CC(=O)NC*
Legend:
[1] = general procedure: Fmoc solid-phase peptide synthesis; TentaGel S RAM; TentaGel S RAM-Lys(Boc)Fmoc (0.23-0.24 mmol/g); preformed Fmoc-protected HObt esters (3 eq.); settings: whole synthesis
[2] = general procedure: Fmoc solid-phase peptide synthesis; TentaGel S RAM; preformed Fmoc-protected HObt esters (3 eq.); settings: whole synthesis, scale 1 g resin
[3] = general procedure: Fmoc solid-phase peptide synthesis; TentaGel S RAM-Lys(Boc)Fmoc; preformed Fmoc-protected HObt esters (3 eq.); settings: whole synthesis, scale 1 g resin

H-PNTC(Acm)EICAYAAC(Acm)TGCDKKKKKK-NH2 (cysteine pairing not given here)
final purity (method not given) [1]: better than 60%

cyclo(GEIGAYAAGTGQ)
crude mass [2]: 40 mg

H-SPNFIWK-NH2
final purity (method not given) [1]: better than 97% | crude mass [3]: 172 mg

Source: US20040152868A1 (priority 2001, published 2004)
